Experimental data reported in the supplement of paper PMC10849652.
Some of the results follow.

Chains of the proteins cited; added tags and fusions are not shown. Lines headed by an entry give the natural chain unless they say otherwise; changes in a name come on top.
UniProt O75879: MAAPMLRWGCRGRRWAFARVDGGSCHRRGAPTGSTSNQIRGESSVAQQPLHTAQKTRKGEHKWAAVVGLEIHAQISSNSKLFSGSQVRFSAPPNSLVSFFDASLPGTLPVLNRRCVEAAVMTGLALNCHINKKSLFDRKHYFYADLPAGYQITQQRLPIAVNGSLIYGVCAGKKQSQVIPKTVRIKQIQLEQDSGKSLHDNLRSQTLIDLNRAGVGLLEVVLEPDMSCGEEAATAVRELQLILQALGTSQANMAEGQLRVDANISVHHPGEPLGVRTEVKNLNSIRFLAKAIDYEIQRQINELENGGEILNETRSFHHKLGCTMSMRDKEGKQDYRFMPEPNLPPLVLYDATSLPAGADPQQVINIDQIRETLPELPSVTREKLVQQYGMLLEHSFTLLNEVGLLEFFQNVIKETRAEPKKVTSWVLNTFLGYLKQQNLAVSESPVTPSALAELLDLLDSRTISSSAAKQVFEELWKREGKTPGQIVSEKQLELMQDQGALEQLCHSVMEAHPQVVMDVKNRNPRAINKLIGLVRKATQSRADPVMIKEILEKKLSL
UniProt Q06210: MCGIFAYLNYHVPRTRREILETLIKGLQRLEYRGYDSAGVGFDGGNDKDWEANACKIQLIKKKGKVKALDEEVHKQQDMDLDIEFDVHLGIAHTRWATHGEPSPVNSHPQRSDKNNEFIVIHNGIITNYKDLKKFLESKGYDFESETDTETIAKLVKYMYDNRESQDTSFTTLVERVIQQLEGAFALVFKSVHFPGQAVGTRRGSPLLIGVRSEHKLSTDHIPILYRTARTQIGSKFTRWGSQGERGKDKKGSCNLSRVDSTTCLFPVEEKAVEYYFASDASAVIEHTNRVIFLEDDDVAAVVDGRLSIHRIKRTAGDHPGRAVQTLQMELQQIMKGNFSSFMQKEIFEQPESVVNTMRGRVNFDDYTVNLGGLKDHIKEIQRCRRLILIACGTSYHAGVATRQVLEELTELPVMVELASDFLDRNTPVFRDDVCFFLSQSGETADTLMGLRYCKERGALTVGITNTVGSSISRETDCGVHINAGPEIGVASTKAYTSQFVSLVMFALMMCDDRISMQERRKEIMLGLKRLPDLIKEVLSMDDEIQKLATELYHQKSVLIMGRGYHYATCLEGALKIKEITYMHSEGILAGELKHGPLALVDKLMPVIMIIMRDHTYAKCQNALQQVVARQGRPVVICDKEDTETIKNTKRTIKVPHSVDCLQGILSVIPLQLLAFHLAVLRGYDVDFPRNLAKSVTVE
UniProt Q9H840: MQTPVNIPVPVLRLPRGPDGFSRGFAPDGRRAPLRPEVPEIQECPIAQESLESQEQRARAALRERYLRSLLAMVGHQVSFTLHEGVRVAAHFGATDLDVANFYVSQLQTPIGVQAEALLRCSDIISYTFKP

Experiments:
Assay in all cases: log2 fold change, soluble protein after heating vs DMSO (PISA); higher = thermal stabilisation; K562 lysate, 10 uM; active = over 0.2 and 3.5 SD of the protein, either way, in both replicates (recomputed)
nilotinib = compound: Cc1cn(-c2cc(NC(=O)c3ccc(C)c(Nc4nccc(-c5cccnc5)n4)c3)cc(C(F)(F)F)c2)cn1 [nilotinib]
In short: (§1)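 Quantification was by TMTpro 16plex LC-MS/MS with equalised channel sums, applied to the supernatant after 21,000xg for 90 min. Samples were crude K562 extract at 1 mg/mL protein in PBS pH 7.4 with 1 mM MgCl2, treated with 10 μM compound for 30 min, heated for 3 min across 48°C-58°C, pooled and brought to 0.5% NP-40 at 4°C. Values are log-two fold changes in thermal stability relative to solvent controls, from duplicates.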

[1] = compound: Cc1nc(Nc2n[nH]c3c2CN(C(=O)N[C@H](CN(C)C)c2ccccc2)C3(C)C)c2sccc2n1
In short: as §1

dasatinib = compound: Cc1nc(Nc2ncc(C(=O)Nc3c(C)cccc3Cl)s2)cc(N2CCN(CCO)CC2)n1 [dasatinib]
In short: as §1

[2] = compound: Cc1ncc(-c2ccnc(Nc3ccc(S(C)(=O)=O)cc3)n2)n1C(C)C
In short: as §1

[3] = compound: Cn1cc(-c2ccc3c(c2)CCN3C(=O)Cc2cccc(C(F)(F)F)c2)c2c(N)ncnc21
In short: as §1

tipifarnib = compound: Cn1cncc1[C@@](N)(c1ccc(Cl)cc1)c1ccc2c(c1)c(-c1cccc(Cl)c1)cc(=O)n2C [tipifarnib]
In short: as §1

[4] = compound: NC(=O)c1cnc(N[C@@H]2CCCC[C@@H]2N)nc1Nc1cccc(-n2nccn2)c1
In short: as §1

quisinostat = compound: Cn1cc(CNCC2CCN(c3ncc(C(=O)NO)cn3)CC2)c2ccccc21 [quisinostat]
In short: as §1

[5] = compound: NC(=O)Nc1cc(-c2cccc(F)c2)sc1C(=O)N[C@H]1CCCNC1
In short: as §1

[6] = compound: NC1(c2ccc(-c3nc4ccn5c(=O)[nH]nc5c4cc3-c3ccccc3)cc2)CCC1
In short: as §1

Measured: log2 fold change

GATB (UniProt O75879)
inactive: nilotinib 0.003 | [1] 0.147 | dasatinib 0.041 | [2] -0.129 | [3] 0.197 | tipifarnib -0.276 | [4] 0.187

GFPT1 (UniProt Q06210)
inactive: nilotinib 0.003 | [1] -0.009 | dasatinib -0.013 | [2] 0.008 | [3] 0.002 | quisinostat -0.031 | tipifarnib -0.006 | [5] 0.027 | [4] -0.003 | [6] -0.025

GEMIN7 (UniProt Q9H840)
inactive: nilotinib -0.116 | [1] 0.055 | [2] 0.133 | quisinostat 0.123 | tipifarnib 0.059 | [5] -0.056
